Reference: PubChem BioAssay AID2685 (National Center for Advancing Translational Sciences (NCATS), 2010)
The list shows a part of the results. Further columns of the screen follow, without active or inactive calls. Compounds called inactive in the main read-out are mostly missing here. Potencies come from curve fits of mixed quality, noted in brackets.

Test: qHTS Assay for Lipid Storage Modulators in Drosophila S3 Cells;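 as to cell number change: cells counted by Cell Tracker Red CMTPX staining in the red channel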
Settings: BODIPY lipid droplet fluorescence, 18-24 h; for cell number change: measured here: cell count max response, cells fed with added oleic acid
How it was run: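 Laser-scanning cytometry quantifies lipid droplet accumulation (500–530 nm total intensity; droplet/cell object ratio) in oleic acid-fed (400 uM added) Drosophila S3 cells treated with a concentration series. 20 uM Triacsin C defined 100% inhibition.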

[1] = measured here: cell number channel AC50, cells fed with added oleic acid
[2] = measured here: lipid fluorescence (Fed channel) AC50, cells fed with added oleic acid

Structure (SMILES) | AC50 [1] | cell number change | AC50 [2]
Cc1ccc(NC(=S)Nc2cccc3cnccc23)c(C)c1 | 6.51 µM [rising, single point] |  | 
Cc1cccc(C)c1OCc1cc(C(=O)N2CCCC2c2nonc2C)no1 (centres undefined) |  | 12.2% | 0.411 µM [rising, partial curve, poor fit]
COc1ccccc1/C=C/C(=O)c1ccc(NC(C)=O)cc1 |  | -24.4% | 6.51 µM [falling, partial curve]
Cc1cc(Br)ccc1NC(=S)NC1CCCC1 | 0.82 µM [falling, full curve, poor fit] | -31.7% | 
CCC(=O)Nc1ccc(C(=O)COC(=O)C(CCSC)NC(=O)COc2ccccc2)cc1 (centres undefined) |  | 12.5% | 
CN(CC(=O)Nc1ccccc1C(F)(F)F)C(=O)COc1ncnc2ccccc12 |  | -23.1% | 
O=C(Nc1ccccc1N1CCCCC1)c1ccccc1F | 13 µM [falling, partial curve, poor fit] | -34.8% | 0.259 µM [rising, full curve, poor fit]
CN(CC(=O)Nc1ccc([N+](=O)[O-])cc1Br)Cc1c(F)cccc1Cl | 6.51 µM [rising, single point] |  | 
Cc1cccc(Nc2nc(N)c([N+](=O)[O-])c(N3CCOCC3)n2)c1 |  | 25.4% | 
Cc1cc(C)nc(N2CCN(c3ncnc4c3oc3ccccc34)CC2)n1 | 2.59 µM [rising, single point] | -6.23% | 
CC(=O)NC12CC3CC(C1)CC(C(=O)Nc1nccs1)(C3)C2 |  | 7.46% | 0.651 µM [falling, single point]
Cc1ccc(NC(=O)COC(=O)C2=COCCO2)cc1 | 0.092 µM [falling, full curve, poor fit] | -24.7% | 
Cc1ccc(C(=O)N/C(=C\c2cn(C)c3ccccc23)C(=O)NCCCN2CCOCC2)cc1 |  | 0.708% | 29.1 µM [rising, single point]
COc1ccc(/C=C(\C#N)C(=O)OCC(=O)NCc2ccccc2OC)cc1 |  | 6.99% | 
COc1cc(CNc2nc3ccccc3s2)cc(OC)c1OC |  | 11% | 
COc1cc(CN(C(=O)c2ccco2)c2ccc(C)cc2)ccc1O |  | -12% | 
Cc1cccc(C)c1NC(=O)CNC(=O)C(C)N1CCCCC1 (centres undefined) |  | 15% | 4.11 µM [falling, single point]
CCCC(=O)Oc1ccc(N(C(=O)CCC)S(=O)(=O)c2cccs2)cc1 |  | -0.228% | 
COc1cc(Cl)c(C)cc1NC(=O)c1cc(S(=O)(=O)N(C)C)ccc1N1CCCC1 | 0.517 µM [falling, partial curve] | -43.7% | 
CC(=O)c1cccc(N(C(=O)CNC(=O)c2ccco2)C(C(=O)NC2CCCC2)c2ccncc2)c1 (centres undefined) |  | 17.5% | 
CCCCCCCCCc1nc2sc3c(c2c(=O)n1NC(=O)c1ccc([N+](=O)[O-])cc1)CC(C)(C)OC3 |  | 0.829% | 
COc1cccc(N2CC(O)=C(c3nc4ccccc4c(=O)[nH]3)C2=N)c1 | 1.16 µM [rising, full curve] | 37.1% | 0.651 µM [rising, full curve]

Structure (SMILES) | AC50 [1] | cell number change | AC50 [2]
C#CC[N+](C)(C)CCCCCCCCC |  | 5.34% | 
Cc1cccc(C(C)C)c1NC(=O)COC(=O)c1cccc(S(=O)(=O)N2CCc3ccccc3C2)c1 | 0.058 µM [falling, full curve] | -0.649% | 4.11 µM [falling, full curve]
COC(=O)c1ccccc1NC(=O)COC(=O)c1cccnc1 | 0.231 µM [rising, full curve, poor fit] | 29.7% | 
COCc1c(C(=O)Nc2ccc3nc(N4CCOCC4)sc3c2)oc2ccccc12 |  | 7.15% | 0.00461 µM [falling, full curve, poor fit]
CC(C)N(Cc1ccccc1)C(=O)CN1C(=O)NC2(CCCCCC2)C1=O | 14.6 µM [falling, single point] | -40.6% | 16.4 µM [falling, single point]
COC(=O)Cc1ccc(NC(=S)NNC(=O)C2CC2)cc1 | 0.326 µM [falling, full curve] | -33.7% | 
CC(=O)Nc1sc2c(c1C#N)CCN(Cc1ccccc1)C2 |  | -2.02% | 3.26 µM [falling, single point]
Cc1ccc(C(=O)Nc2cccc(-c3nc4ncccc4o3)c2)cc1 | 0.058 µM [rising, full curve, poor fit] | 13.7% | 1.3 µM [rising, full curve]
CCCC(=O)C1=C(O)C(C(=O)OC)C(C)(C)CC1=N (centres undefined) | 29.1 µM [rising, single point] | 33.8% | 1.46 µM [falling, full curve]
Cn1c(N)c(N=O)c(=O)n(C)c1=O | 0.58 µM [rising, single point] |  | 
O=C1c2[nH]nc(-c3ccccc3O)c2C(c2ccccc2)N1Cc1ccco1 (centres undefined) | 0.82 µM [falling, single point] |  | 0.651 µM [falling, single point]
O=C(COc1ccc2c(C(F)(F)F)cc(=O)oc2c1)NCc1cccs1 |  | 1.17% | 2.31 µM [rising, single point]
COc1ccc(C(=O)OCC2CC(c3ccccc3)=NO2)cc1OC (centres undefined) |  | -38.7% | 
CC1(c2ccc(Cl)cc2Cl)OCC(Cn2ccnc2)O1 (centres undefined) |  | -48% | 2.59 µM [rising, partial curve, poor fit]
CC(=O)c1c(C)nc(-c2ccc(OCC(=O)Nc3cccc(C)c3C)cc2)n1O |  | -0.63% | 32.6 µM [falling, single point]
CCN1CCN(Cc2nc3c(c(=O)n(C)c(=O)n3C)n2Cc2cccc3ccccc23)CC1 | 0.146 µM [falling, full curve, poor fit] | -43.7% | 1.46 µM [falling, partial curve, poor fit]
O=C(NC(=S)Nc1nc(-c2ccccc2)cs1)c1cccnc1 | 3.26 µM [rising, single point] |  | 2.59 µM [rising, single point]
COc1ccc(-c2cc(C(F)(F)F)nc(SCC(=O)Nc3sc4c(c3C#N)CCC4)n2)cc1 |  | 27.3% | 
COc1ccccc1NC(=S)N1CCN(C/C=C/c2ccccc2)CC1 |  | -27.9% | 
COc1ccc(-n2c(=S)[nH]c3cc(C(=O)N4CCN(c5ccccc5)CC4)ccc3c2=O)c(OC)c1 |  | 5.13% | 
CC(=O)Nc1ccc(S(=O)(=O)NC2CCSc3ccccc32)cc1 (centres undefined) |  | 26.1% | 
COC(=O)c1cccc(Oc2nc3c(c(=O)n(C)c(=O)n3C)n2C(C)C)c1 |  | 21.1% | 

Among those listed so far, 3 contain a nitro group on carbon:
Structure (SMILES) | AC50 [1] | cell number change | AC50 [2]
CN(CC(=O)Nc1ccc([N+](=O)[O-])cc1Br)Cc1c(F)cccc1Cl | 6.51 µM [rising, single point] |  | 
Cc1cccc(Nc2nc(N)c([N+](=O)[O-])c(N3CCOCC3)n2)c1 |  | 25.4% | 
CCCCCCCCCc1nc2sc3c(c2c(=O)n1NC(=O)c1ccc([N+](=O)[O-])cc1)CC(C)(C)OC3 |  | 0.829% | 

(list continues)

Structure (SMILES) | AC50 [1] | cell number change | AC50 [2]
Cc1ccc(C(=O)NCCc2ccccc2)cc1 |  | 11.1% | 0.184 µM [rising, full curve, poor fit]
CCOC(=O)c1ccccc1-c1csc(N)n1 |  | -4.31% | 
C=CCn1c(N2CCCC2)nc2c1c(=O)n(C)c(=O)n2C | 13 µM [falling, single point] | -36.5% | 2.91 µM [rising, partial curve, poor fit]
CN(CC(=O)NC(=O)NCc1ccccc1)Cc1cccc(Cl)c1Cl |  | 11.1% | 
CCOC(=O)N1CCC(=NNC(=O)NC2CCCCC2)CC1 |  | -40.7% | 3.16 µM [falling, full curve, poor fit]
C/C(=N\Nc1ccccn1)c1ccc(OC(F)F)cc1 |  | -30.4% | 
O=C(O)CNS(=O)(=O)c1ccc(Br)s1 |  | 3.69% | 
COc1cc(C(=O)NCCOc2ccccc2C)c(Br)c(OC)c1OC |  | 4.44% | 14.6 µM [rising, single point]
CC1CCCCN1C(=O)COc1ccc(NC(=O)c2ccco2)cc1 (centres undefined) |  | 15.5% | 11.6 µM [rising, partial curve]
Oc1ccc(Cl)cc1-c1cc(C(F)(F)C(F)F)nc(-c2ccccc2)n1 |  | -21.6% | 
CCOC(=O)C1C(=O)NC(N2CCCCC2)=NC1C(C)C (centres undefined) | 6.51 µM [falling, single point] | -13.1% | 6.51 µM [falling, single point]
CCC(C)[C@H](NC(=O)[C@H](Cc1ccccc1)n1c(=O)[nH]c2ccccc2c1=O)C(=O)N1CCC[C@@H]1C(=O)O (some centres undefined) |  |  | 29.1 µM [rising, single point]
O=C(C(Cc1ccccc1)n1cccc1)N1CCN(c2ncccn2)CC1 (centres undefined) | 16.4 µM [rising, partial curve] | 74.7% | 
Cc1ccccc1NC(=S)c1nc2ccccc2[nH]1 |  |  | 0.651 µM [falling, single point]
CCOC(=O)NN=C1CCC(c2ccccc2)CC1 (centres undefined) |  |  | 0.291 µM [rising, full curve]
O=C(c1ccco1)N1N=C(c2ccc(Cl)cc2)CC1c1ccco1 (centres undefined) |  | 2.29% | 
Cc1ccc2c(c1)C(=O)C(=O)N2CC1COc2ccccc2O1 (centres undefined) |  | -31.9% | 0.517 µM [rising, partial curve]
Cc1cc(C)n(C/C=C/Cn2nc(C)cc2C)n1 |  | 7.44% | 0.58 µM [rising, single point]
COc1ccc(C(=O)C[N+]2(C)CCOCC2)cc1 | 0.058 µM [falling, full curve, poor fit] | -32.3% | 2.31 µM [falling, full curve, poor fit]
COc1cc(C)ccc1S(=O)(=O)N1CCN(C23CC4CC(CC(C4)C2)C3)CC1 | 25.9 µM [falling, single point] | -31% | 20.6 µM [falling, partial curve]
COc1ccc(Cl)cc1NC(=O)c1cc(-c2ccco2)on1 | 23.1 µM [rising, partial curve, poor fit] | 65.1% | 
CN(CC(=O)NCc1ccco1)S(=O)(=O)c1ccc(F)cc1 |  |  | 29.1 µM [rising, single point]
